Experimental data from US5385941A, “Salts/ion pairs of non-steroidal anti-inflammatory drugs in various dosage forms” (Warner-Lambert Company, priority 1993, dated 1995).

How the values were obtained:
[1] = Solubility in water at room temperature (excess compound, overnight shaking, filtration, HPLC)

Row | SMILES | R.T. Solubility (Solubility of MA/DPH in Water) ([1]; same methodology as Example II, Table 6) [µg/mL] | solubility in polar organic solvents | aqueous solubility of DPH due to formation of the SA/DPH salt/ion-pair ([1]; compared with DPH base) | R.T. SOLUBILITY (Solubility of SA/DPH in Water) ([1]; overnight shaking, SA/DPH calculated from DPH concentration by HPLC, Table 3) [µg/mL]
1 | CN(C)CCOC(c1ccccc1)c1ccccc1.Cc1ccc(Cl)c(Nc2ccccc2C(=O)O)c1Cl [MA/DPH, Meclofenamic acid-Diphenhydramine] | 97 |  |  | 
2 | CN(C)CCOC(c1ccccc1)c1ccccc1.O=C(O)c1ccccc1O [SA/DPH, Salicylic acid-Diphenhydramine salt] |  | soluble | marked increase | 2827
